# Source: article PMC6297355
# Chains of the proteins cited; added tags and fusions are not shown. Lines headed by an entry give the natural chain unless they say otherwise; changes in a name come on top.
# UniProt O95817: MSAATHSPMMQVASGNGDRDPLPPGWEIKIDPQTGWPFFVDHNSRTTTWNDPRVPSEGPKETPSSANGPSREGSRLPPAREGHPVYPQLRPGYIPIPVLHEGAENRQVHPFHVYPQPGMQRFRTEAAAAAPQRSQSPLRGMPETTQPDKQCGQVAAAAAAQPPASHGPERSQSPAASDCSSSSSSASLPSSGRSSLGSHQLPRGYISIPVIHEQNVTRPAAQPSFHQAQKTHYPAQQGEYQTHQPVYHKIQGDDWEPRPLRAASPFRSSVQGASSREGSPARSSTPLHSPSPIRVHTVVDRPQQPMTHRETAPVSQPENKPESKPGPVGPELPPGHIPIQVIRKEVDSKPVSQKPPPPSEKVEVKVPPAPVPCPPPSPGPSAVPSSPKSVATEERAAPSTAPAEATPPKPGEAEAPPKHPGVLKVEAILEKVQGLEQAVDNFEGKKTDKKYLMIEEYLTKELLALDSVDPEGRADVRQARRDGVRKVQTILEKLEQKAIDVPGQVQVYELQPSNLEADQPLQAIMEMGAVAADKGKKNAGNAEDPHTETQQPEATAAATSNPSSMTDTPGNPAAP
# These are yes or no findings as the source states them, for the method shown. Binding seen in cells or lysates may run through a third protein. Binding calls can cover weak binding; strength is not graded here. Sequences can lack the tags named with a protein.
# B1: Myc-HSPB8 (protein, UniProt Q9UJY1 1-196)
# chain: MADGQMPFSCHYPSRLRRDPFRDSPLSSRLLDDGFGMDPFPDDLTASWPDWALPRLSSAWPGTLRSGMVPRGPTATARFGVPAEGRTPPPFPGEPWKVCVNVHSFKPEELMVKTKDGYVEVSGKHEEKQQEGGIVSKNFTKKIQLPAEVDPVTVFASLSPEGLLIIEAPQVPPYSTFGESSFNNELPQDSQEVTCT
# Target: FLAG-BAG3^(IPV1mut, P209L) (human) (UniProt O95817)
# Assay: co-IP; anti-FLAG (M2) magnetic beads on the soluble fraction of HEK293 lysates expressing FLAG-BAG3 variants and Myc-HSPB8, 0.4% NP-40 buffer, 4 °C; in Fig. 5f cells treated with 0.5 μM JG-98, 5 μM YM-01 or DMSO
binder,measurement,value
B1,binding,binds
